The record followed here is PMC3095642, “New Synthetic Thrombin Inhibitors: Molecular Design and Experimental Verification” (PLoS ONE, 2011).

For the data set, the system named is thrombin generation in normal donor plasma (PPP). The data set can be described thus: Thrombin generation test in plasma (endogenous thrombin potential, ETP). Type of data set: biochemical, human. The following applies: ratio of IC50 for ETP reduction in plasma to Ki in buffer system. The procedure:
The kinetics of thrombin generation in plasma was monitored using a modification of the standard method using a slow fluorogenic substrate BOC-Ile-Gly-Arg-AMC [8]. Normal donor plasma (PPP) was placed in the wells (90 µl/well) of a 96-well flat-bottom microtiter plate, after which 10 µl of the substance solution to be tested was added in different concentrations, along with 10 µl of the slow fluorogenic substrate (initial concentration 5 mM). In the control wells (without inhibitor), 10 µl of the solvent used was added (20 mM HEPES, pH 7.5 and 140 mM NaCl; or pure ethanol, or dimethylsulfoxide (DMSO) for different substances). The samples were incubated at 37°C for 3–5 min before being activated with thromboplastin, which was a 1∶250 dilution of a standard prothrombin time reagent (Renam, Moscow, Russia) in the same buffer supplemented with 90 mM CaCl2. The final concentration of tissue factor during activation was about 4 pM. Thromboplastin (25 µl) was added to all wells simultaneously using a multichannel micropipette. The moment of thromboplastin addition was taken as time zero. The kinetics of accumulation of the fluorescent reaction product 7-amino-4-methylcoumarine (AMC) was recorded for 65 min with a fluorometric Fluoroscan II reader (LabSystem, Finland) (λex. = 380 nm; λem. = 440 nm). The results were averaged over two parallel samples. The error of parallel measurements was within 2–5%. At every moment, the rate of product accumulation is proportional to the instant thrombin concentration present in plasma. Therefore, the curve for the temporal evolution of thrombin in the system may be obtained using differentiation of the curve for AMC accumulation. For each sample, arbitrary fluorescence units were converted to absolute AMC concentrations using the calibration signal obtained by adding a known AMC concentration into each particular plasma sample in the presence of the fluorogenic substrate and the tested substance. The corrections were done taking into account the substrate consumption and the nonlinearity of the AMC calibration curve. The area under the thrombin time curve over a period of 60 min (endogenous thrombin potential, ETP) was determined.

The structures appear in SMILES notation.

In the case of `Cc1cc(OCCCSC(=N)N)cc(OS(=O)(=O)c2ccccc2Cl)c1.I` [8e], the “IC50(ETP)/Ki” value came out at 4100.
Consider `Cc1cc(OCC[n+]2ccc(N)cc2)cc(OS(=O)(=O)c2ccc(Cl)cc2)c1.[I-]` [4h], for which the “IC50(ETP)/Ki” value was determined as 192.3.
For the molecule `Cc1cc(OCCC[n+]2ccc(N)cc2)cc(OS(=O)(=O)c2ccccc2Cl)c1.[I-]` [4d], the “IC50(ETP)/Ki” value is 136.5.
On to `CNC(=N)SCCOc1cc(C)cc(OS(=O)(=O)c2ccccc2Cl)c1.I` [8h], for which the “IC50(ETP)/Ki” value came out at 93.0.
Under `Cc1cc(OCCSC(=N)N)cc(OS(=O)(=O)c2ccccc2)c1.I` [8d] stands 947.4; under `Cc1cc(OCC[n+]2ccc(N)cc2)cc(OS(=O)(=O)c2ccccc2)c1.[I-]` [4i], 320.5.
In the case of `Cc1cc(OCCSC(=N)N)cc(OS(=O)(=O)c2ccccc2S(C)(=O)=O)c1.I` [8b], the “IC50(ETP)/Ki” value is on record as 533.3.
In the case of `Cc1cc(OCC[n+]2ccc(N)cc2)cc(OS(=O)(=O)c2ccccc2S(C)(=O)=O)c1.[I-]` [4g], the “IC50(ETP)/Ki” value was 213.3.
Under `Cc1cc(OCC[n+]2ccc(N)cc2)cc(OS(=O)(=O)c2ccccc2F)c1.[I-]` [4e] stands 333.3; under `Cc1cc(OCC[n+]2ccc(N)cc2)cc(OS(=O)(=O)c2ccccc2Cl)c1.[I-]` [4f], 1238.1.
The same measure for `Cc1cc(OCCCSC(=N)N)cc(OS(=O)(=O)c2ccccc2)c1.I` [8a]: 952.4; for `Cc1cc(OCCSC(=N)N)cc(OS(=O)(=O)c2ccccc2Cl)c1.I` [8c]: 484.8; for `CNC(=N)SCCCOc1cc(C)cc(OS(=O)(=O)c2ccccc2Cl)c1.I` [8g]: 53.2.
Under `Cc1cc(OCCCSC(=N)N)cc(OS(=O)(=O)c2ccccc2F)c1.I` [8f] stands 610.8.
